{"source": "patent US12459898B2", "about": "“Polycationic amphiphiles as antimicrobial agents and methods using same” (Temple University-Of The Commonwealth System of Higher …, priority 2016, dated 2025)", "format_in_all_cases": "cell-based", "key": {"[1]": {"system": "methicillin-susceptible Staphylococcus aureus MSSA (SH1000)", "assay": "Minimum inhibitory concentration (MIC), S. aureus", "conditions": "72 h, read-out: MIC, S. aureus", "description": "(§1) As used herein, the term “minimum inhibitory concentration (MIC)” refers to the lowest concentration of an antimicrobial agent that will inhibit the visible growth of a microorganism after overnight incubation. MIC values against bacteria, for example, the Gram-positive Staphylococcus aureus and Enterococcus faecalis and the Gram-negative Escherichia coli and Pseudomonas aeruginosa were determined by standard methods. See also P. A. Wayne, Methods for Dilution Antimicrobial Tests for Bacteria that Grow Aerobically; Approved Standard, Ninth Edition, 2012, CLSI Document M07-A9, Vol. 32 No. 2, which is incorporated by reference herein in its entirety. […]\n(§2) Compounds were serially diluted two-fold from stock solutions to yield twelve test concentrations. […] Plates were incubated statically at 37° C. for 72 hours upon which time wells were evaluated visually for bacterial growth. The MIC was determined as the lowest concentration of compound resulting in no bacterial growth visible to the naked eye, based on the majority of three independent experiments. […]"}, "[2]": {"system": "Enterococcus faecalis (OG1RF)", "assay": "Minimum inhibitory concentration (MIC), E. faecalis", "conditions": "72 h, read-out: MIC, E. faecalis", "description": "as §1, §2"}, "[3]": {"system": "Escherichia coli (MC4100)", "assay": "Minimum inhibitory concentration (MIC), E. coli", "conditions": "72 h, read-out: MIC, E. coli", "description": "as §1, §2"}, "[4]": {"system": "Pseudomonas aeruginosa (PAO1)", "assay": "Minimum inhibitory concentration (MIC), P. aeruginosa", "conditions": "PAO1, 72 h, read-out: MIC, P. aeruginosa", "description": "as §1, §2"}, "[5]": {"system": "community-acquired methicillin-resistant Staphylococcus aureus CA-MRSA (USA300-0114)", "assay": "Minimum inhibitory concentration (MIC), CA-MRSA", "description": "as §1, §2"}, "[6]": {"system": "hospital-acquired methicillin-resistant Staphylococcus aureus HA-MRSA (ATCC 33591)", "assay": "microbe, parasite or virus in culture", "conditions": "72 h, read-out: MIC, HA-MRSA", "description": "as §1, §2"}, "[7]": {"system": "red blood cells (mechanically defibrinated sheep blood)", "assay": "Red blood cell (RBC) lysis assay (Lysis20)", "description": "For the tris-pyridine system, it was initially attempted to alkylate the commercially available O3Pyr, which led to no reaction under a number of SN2-type reaction conditions, presumably due to steric hindrance next to the nucleophilic pyridine nitrogen. The preparation of the “para” isomer via a precedented reductive amination shown in FIG. 4 (52%) was then carried out (Oh et al., 2007, Korean Chem. Soc, 28: 2193-2194, Abdel-Magid et al., 1996, J. Org. Chem, 61: 3849-3862). […] Attempts to prepare homologs led to variable yields and unacceptable purity. While not wishing to be bound by any particular theory it was hypothesized that this could have resulted from a fragmentation event driven by the central nitrogen, which might be circumvented by a change in the electronic distribution of the QAC. […] These amphiphiles were prepared in 71-97% yields, again after recrystallization or trituration. With 18 novel multi-pyridinium compounds in hand, varying in both alkyl chain length and number of pyridinium residues, both antimicrobial activity and toxicity of the compounds were examined, using red blood cell lysis as a model; CPC served as a comparison. […]\nRBC lysis assays were performed on mechanically defibrinated sheep blood (Hemostat Labs: DSB030). […] The absorbance of the supernatant was measured with a UV spectrometer at a 540 nm wavelength."}}}
{"compound": "CCCCCCCCCCCCCCCC[n+]1ccccc1", "note": "[CPC, cetylpyridinium chloride, reference compound]", "values": [{"measurement": "MIC", "setting": "[1]", "value": 0.5, "unit": "µM"}, {"measurement": "MIC", "setting": "[2]", "value": 1, "unit": "µM"}, {"measurement": "MIC", "setting": "[3]", "value": 8, "unit": "µM"}, {"measurement": "MIC", "setting": "[4]", "value": 63, "unit": "µM"}, {"measurement": "MIC", "setting": "[5]; Staphylococcus aureus, 72 h, read-out: MIC, CA-MRSA", "value": 16, "unit": "µM"}, {"measurement": "increase in MIC, CA-MRSA as compared to a non-resistant SA strain", "setting": "[5]; hallmark of bacterial resistance", "value": 32, "unit": "fold"}, {"measurement": "MIC", "setting": "[6]", "value": 1, "unit": "µM"}, {"measurement": "Lysis20 (highest concentration at which <20% of RBCs are lysed)", "setting": "[7]; sheep RBCs in PBS, 37° C., 1 hour, absorbance 540 nm, Table 1", "value": 8, "unit": "μm"}, {"measurement": "lysis20 (hemolysis activity)", "setting": "[7]; sheep RBCs, values restated in text", "value": 8, "unit": "µM"}]}
